Measurements: publication PMC7819943, “Rice protein-binding microarrays: a tool to detect cis-acting elements near promoter regions in rice”
Some of the results follow.

These sequences were tested against T1, OsSMF1 (Oryza sativa, UniProt Q6ZLB0 1-436) (assay: protein-binding microarray (RPBM); PBS, 2% BSA, 51.3 ng/ul salmon testes DNA, 50 uM zinc acetate, 200 nM TF, 25 C, 1 h; high values mean tight binding). Settings: protein: recombinant; tags: N-terminal polyhistidine and DsRed monomer fusion (pET32a); chain copies: 2; label: CyDye5-dUTP incorporated in the synthesized complementary strand; 3' TTTTT single-stranded linker to array surface; dsDNA, one strand shown.
T1 sequence: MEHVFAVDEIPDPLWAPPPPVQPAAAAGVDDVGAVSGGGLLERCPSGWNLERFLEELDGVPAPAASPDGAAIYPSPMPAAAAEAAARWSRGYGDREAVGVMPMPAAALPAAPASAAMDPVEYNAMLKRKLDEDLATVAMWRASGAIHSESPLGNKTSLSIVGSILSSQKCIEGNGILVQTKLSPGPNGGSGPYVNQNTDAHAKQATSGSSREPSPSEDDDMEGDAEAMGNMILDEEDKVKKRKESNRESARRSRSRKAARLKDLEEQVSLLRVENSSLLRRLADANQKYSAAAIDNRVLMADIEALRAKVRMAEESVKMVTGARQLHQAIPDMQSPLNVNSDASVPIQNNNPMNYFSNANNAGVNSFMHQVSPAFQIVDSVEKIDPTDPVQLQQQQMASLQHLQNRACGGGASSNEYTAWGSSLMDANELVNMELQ
Method in brief: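 In PBS with 2% BSA, salmon testes DNA and 50 µM zinc acetate, 200 nM protein was incubated on a custom Agilent array at 25 °C for 1 h and then washed off. The array had been made double-stranded by primer extension with Cy5-dUTP and blocked with 2% BSA. The proteins were transcription factors fused N-terminally to polyhistidine and DsRed, expressed in E. coli BL21-CodonPlus and purified on Ni–NTA. The binding signal is per-feature fluorescence intensity (arbitrary units) from an Axon 4000B scanner.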
In the case of “CGGCATTCGCCAAAGGCCGGGAGAGTCGATAAGAGAATACCGGAGTCACCTAGTGCAG”, the binding signal is reported as 7060 fluorescence intensity (a.u.). “GCCCGGTCGGTCAGTGTGTGTCACTGTCTCTCACCCTCCCCGGAGTCACCTAGTGCAG” was tested, and the binding signal was 5750 fluorescence intensity (a.u.). For “TAGAGGGAGATCTATACTCACTCTGATCCTAAATACGAACCGGAGTCACCTAGTGCAG”, the binding signal was 32600 fluorescence intensity (a.u.). In the case of “CTTCCATTCTAGCAGATAGAAAGAAACTAAAAGACACAGCCGGAGTCACCTAGTGCAG”, the binding signal is reported as 26300 fluorescence intensity (a.u.). “CCGCCACCGCCACCTCGCTGTCGTGGCTACCTCAGCCGTCCGGAGTCACCTAGTGCAG” was tested, and the binding signal was 7620 fluorescence intensity (a.u.). With “TGTCCCTCTCTCATCATCATCATTCATCAATCGTCGCCTGCGGAGTCACCTAGTGCAG” the binding signal was 15500 fluorescence intensity (a.u.). For “ATGCATGTGTGGAGTCATCCAATGGTTCCTTCTCCCTTGCCGGAGTCACCTAGTGCAG”, the binding signal was 5140 fluorescence intensity (a.u.). With “CGCAGCAGCAGTAGCCGAGTTCCGCCGCCACGCGCAGCAGCGGAGTCACCTAGTGCAG” the binding signal was 4080 fluorescence intensity (a.u.). With “AGACGCCGCTTGTAGACAGCCCCATCCTGTCGCCACGTGTCGGAGTCACCTAGTGCAG” the binding signal was 11300 fluorescence intensity (a.u.). With “GTTGCTCATCCAATGTGACGTCAGATGTTCATAGGAGTACCGGAGTCACCTAGTGCAG” the binding signal was 13400 fluorescence intensity (a.u.). With “TGTGATTCTGTGAAGATGTCATCAATATTTATAGGAGCGCCGGAGTCACCTAGTGCAG” the binding signal was 4950 fluorescence intensity (a.u.). For “GTCGTATTTCCTAATTAATATATATAATTTGTCGTCATTACGGAGTCACCTAGTGCAG”, the binding signal was 3700 fluorescence intensity (a.u.). For “CGACTACTCCACATCACCCGACCCTCTGAGATCACCCTGACGGAGTCACCTAGTGCAG”, the binding signal was 7420 fluorescence intensity (a.u.). For “AGCTATCATGTAAGCGTCACGTCAATGCGATGCAGGGGCGCGGAGTCACCTAGTGCAG”, the binding signal was 4630 fluorescence intensity (a.u.). For “CAGCTAGCTCGACGCCCCATCTCTCTCTCTCTCTCTCTCTCGGAGTCACCTAGTGCAG”, the binding signal was 3410 fluorescence intensity (a.u.). In the case of “AAGAAATCCAGTGCCTCCCCTCCACCACATGTCATGCTATCGGAGTCACCTAGTGCAG”, the binding signal is reported as 3500 fluorescence intensity (a.u.). With “CTTGTTGTGCAAGGCCACGTGCCTTTTCTTTTCTATTAGTCGGAGTCACCTAGTGCAG” the binding signal was 4080 fluorescence intensity (a.u.). In the case of “TTCGCTAGGCGCATACGTCATCACCCCTCCCTCCCGACTTCGGAGTCACCTAGTGCAG”, the binding signal is reported as 22500 fluorescence intensity (a.u.). “ATGTGGGTCCCACGCGCCACGTAGGCCAATACTGGGTTAACGGAGTCACCTAGTGCAG” was tested, and the binding signal was 7600 fluorescence intensity (a.u.). In the case of “AAATCAAGCACTAATCCACTCTGACACGTCATCATGTATCCGGAGTCACCTAGTGCAG”, the binding signal is reported as 22400 fluorescence intensity (a.u.). With “AGATTGTACAACCCACGTACAATCATACCGTATCCACCAACGGAGTCACCTAGTGCAG” the binding signal was 3320 fluorescence intensity (a.u.). In the case of “CCGGGAAATTCTTGTGTTGTTGTGTTGGTCTTGAGCAATTCGGAGTCACCTAGTGCAG”, the binding signal is reported as 3630 fluorescence intensity (a.u.). “AAAGCCGCACACGTGTTTCCCGCGACCGCGCCACGTCACCCGGAGTCACCTAGTGCAG” was tested, and the binding signal was 46700 fluorescence intensity (a.u.). For “ATTCGCAGAGCATTTTCCATCCACGTTGGTGCGCCAACTCCGGAGTCACCTAGTGCAG”, the binding signal was 4320 fluorescence intensity (a.u.). For “CTAGGTTTTGCATCGAGTCATGGAGATAACACAACTAGTGCGGAGTCACCTAGTGCAG”, the binding signal was 3900 fluorescence intensity (a.u.). In the case of “GGAACATCCCCTCGATCTTGCACGAGTTTACCATTCGCCACGGAGTCACCTAGTGCAG”, the binding signal is reported as 3390 fluorescence intensity (a.u.). “GCGTGACGCGGGCATGGGCGTCGGCGTGGCAGGGAAAGCGCGGAGTCACCTAGTGCAG” was tested, and the binding signal was 4770 fluorescence intensity (a.u.). In the case of “GGCGCTGGCAAGATGGAGGCGGAGGGTGGAGGGCGGAGGACGGAGTCACCTAGTGCAG”, the binding signal is reported as 3380 fluorescence intensity (a.u.). “GCCACATAGATGCCACGTTAACCAAAACCGCATTCCAAACCGGAGTCACCTAGTGCAG” was tested, and the binding signal was 6100 fluorescence intensity (a.u.). “AATCTAAAATGGTTTTGATCCTACGTGGCATCCGTACGTACGGAGTCACCTAGTGCAG” was tested, and the binding signal was 9560 fluorescence intensity (a.u.). In the case of “CGAGGCTGGCGTGGTGGCGTGCCGTGTACAGTGTGCTAGTCGGAGTCACCTAGTGCAG”, the binding signal is reported as 3810 fluorescence intensity (a.u.). In the case of “TCCCGGCGTGCTCGCGTGGCGGCGCCGCCGGAGCTGCTCACGGAGTCACCTAGTGCAG”, the binding signal is reported as 6590 fluorescence intensity (a.u.). In the case of “TGGAAACGGTTTTAACTGGCATGACGACGTGGGACCCACACGGAGTCACCTAGTGCAG”, the binding signal is reported as 5420 fluorescence intensity (a.u.). “GGTCGCCGTTGCCGTTGCTGGTGGCCTCTCCCACTTAATGCGGAGTCACCTAGTGCAG” was tested, and the binding signal was 4450 fluorescence intensity (a.u.). With “CTTATATTCTGAGACAGAGTACTAGTTAGCTTTGTCTCTACGGAGTCACCTAGTGCAG” the binding signal was 11900 fluorescence intensity (a.u.). With “TCAGATAGCCACCATGACATGTATCAGTACATGCAGTGATCGGAGTCACCTAGTGCAG” the binding signal was 4480 fluorescence intensity (a.u.). In the case of “CCGTCGCTTGGCGATCGGACGGCGTGGATCCAATCCAACGCGGAGTCACCTAGTGCAG”, the binding signal is reported as 4610 fluorescence intensity (a.u.). “GGATAAGTGCCCCTACCAATAGGTGGACCCTTGTCACTGGCGGAGTCACCTAGTGCAG” was tested, and the binding signal was 19300 fluorescence intensity (a.u.). “ATTGGATTTCCACGTCGACGGTACGTGTATGCCACGTAGGCGGAGTCACCTAGTGCAG” was tested, and the binding signal was 32900 fluorescence intensity (a.u.). With “CTCCCCGCGCCTCCCGGGGCAAAACTACCCCTCACCTTGGCGGAGTCACCTAGTGCAG” the binding signal was 3280 fluorescence intensity (a.u.). With “ACGGTGTTGCACTATATTATCACAGAATGTTTCACATATTCGGAGTCACCTAGTGCAG” the binding signal was 5730 fluorescence intensity (a.u.). In the case of “GCGGGCGCACGGGTGGGTGGTGTTCTGGGGCGGAGGCAGCCGGAGTCACCTAGTGCAG”, the binding signal is reported as 3310 fluorescence intensity (a.u.). For “CTTCGGCGTCCATGGGCCCACCGTTATTGGGCCACGTTCGCGGAGTCACCTAGTGCAG”, the binding signal was 3450 fluorescence intensity (a.u.). With “CCGCTTCGACTCCAACATCAAGCAGATGGCCGACAACGGCCGGAGTCACCTAGTGCAG” the binding signal was 17600 fluorescence intensity (a.u.). For “CATGGAGCTCTAAAGCCCGCCCACGCCATGCGCCGAGTAGCGGAGTCACCTAGTGCAG”, the binding signal was 3140 fluorescence intensity (a.u.). With “GATGGGCACTGGAAGCTGGAGGGGACGTGCTTGCCGCACTCGGAGTCACCTAGTGCAG” the binding signal was 4190 fluorescence intensity (a.u.). With “TGGACCGGGGCCAAGCCAAATGGACGTGCCGTGGGCCGTGCGGAGTCACCTAGTGCAG” the binding signal was 3720 fluorescence intensity (a.u.). “TCCAACCATTACTGCATCGCGTCAGCTCACGTGGACCCACCGGAGTCACCTAGTGCAG” was tested, and the binding signal was 13100 fluorescence intensity (a.u.). For “CTTATTGTTGGCTAATATGGTTTTACATATACAATAATAACGGAGTCACCTAGTGCAG”, the binding signal was 4780 fluorescence intensity (a.u.). “AGGAAGACAACTATGATTTGGCAACTCGGTGGCGGTGGCGCGGAGTCACCTAGTGCAG” was tested, and the binding signal was 3460 fluorescence intensity (a.u.). For “GCTATCTCGCCGTACCGCCGTCGCCGCTTCCTCTCGCACGCGGAGTCACCTAGTGCAG”, the binding signal was 3900 fluorescence intensity (a.u.). With “CTGCTTGAGCAATATGGCTCAGCCAACTTCGTCAGCAAGGCGGAGTCACCTAGTGCAG” the binding signal was 3180 fluorescence intensity (a.u.). In the case of “GAGAGAGAGAGGAGATAATAAAATACTCGATATTGAATTGCGGAGTCACCTAGTGCAG”, the binding signal is reported as 42500 fluorescence intensity (a.u.). For “CGGCCCGTCAACGCGACACGTGTCCCGGTCGGTCGGGTGTCGGAGTCACCTAGTGCAG”, the binding signal was 19000 fluorescence intensity (a.u.).
